No constants are given. Whether binding was seen depends on the method and setting. Some entries that bind do so weakly or less than the wild type.
Experiments:
[1] = molecular target: MUC2 mucin (Mucin-2) (human (endogenous in LS174T)) (UniProt Q02817); assay: SEC; Sepharose 4B column chromatography of native secreted mucus from LS174T spent culture media (Tris-HCl buffer, pH 8.0, 4 °C); fractions (V0, F1-F3) run on SDS-PAGE under reducing and non-reducing conditions and Western-blotted for FCGBP, glycosylated MUC2 and CLCA1
[2] = molecular target: IgGFc-binding protein (FCGBP) (human (endogenous in LS174T)) (UniProt Q9Y6R7); assay: as above

Sequences of proteins named here, by UniProt entry; tags and fusion partners are left off. Residues count along the entry.
UniProt Q02817, residues 21-5289: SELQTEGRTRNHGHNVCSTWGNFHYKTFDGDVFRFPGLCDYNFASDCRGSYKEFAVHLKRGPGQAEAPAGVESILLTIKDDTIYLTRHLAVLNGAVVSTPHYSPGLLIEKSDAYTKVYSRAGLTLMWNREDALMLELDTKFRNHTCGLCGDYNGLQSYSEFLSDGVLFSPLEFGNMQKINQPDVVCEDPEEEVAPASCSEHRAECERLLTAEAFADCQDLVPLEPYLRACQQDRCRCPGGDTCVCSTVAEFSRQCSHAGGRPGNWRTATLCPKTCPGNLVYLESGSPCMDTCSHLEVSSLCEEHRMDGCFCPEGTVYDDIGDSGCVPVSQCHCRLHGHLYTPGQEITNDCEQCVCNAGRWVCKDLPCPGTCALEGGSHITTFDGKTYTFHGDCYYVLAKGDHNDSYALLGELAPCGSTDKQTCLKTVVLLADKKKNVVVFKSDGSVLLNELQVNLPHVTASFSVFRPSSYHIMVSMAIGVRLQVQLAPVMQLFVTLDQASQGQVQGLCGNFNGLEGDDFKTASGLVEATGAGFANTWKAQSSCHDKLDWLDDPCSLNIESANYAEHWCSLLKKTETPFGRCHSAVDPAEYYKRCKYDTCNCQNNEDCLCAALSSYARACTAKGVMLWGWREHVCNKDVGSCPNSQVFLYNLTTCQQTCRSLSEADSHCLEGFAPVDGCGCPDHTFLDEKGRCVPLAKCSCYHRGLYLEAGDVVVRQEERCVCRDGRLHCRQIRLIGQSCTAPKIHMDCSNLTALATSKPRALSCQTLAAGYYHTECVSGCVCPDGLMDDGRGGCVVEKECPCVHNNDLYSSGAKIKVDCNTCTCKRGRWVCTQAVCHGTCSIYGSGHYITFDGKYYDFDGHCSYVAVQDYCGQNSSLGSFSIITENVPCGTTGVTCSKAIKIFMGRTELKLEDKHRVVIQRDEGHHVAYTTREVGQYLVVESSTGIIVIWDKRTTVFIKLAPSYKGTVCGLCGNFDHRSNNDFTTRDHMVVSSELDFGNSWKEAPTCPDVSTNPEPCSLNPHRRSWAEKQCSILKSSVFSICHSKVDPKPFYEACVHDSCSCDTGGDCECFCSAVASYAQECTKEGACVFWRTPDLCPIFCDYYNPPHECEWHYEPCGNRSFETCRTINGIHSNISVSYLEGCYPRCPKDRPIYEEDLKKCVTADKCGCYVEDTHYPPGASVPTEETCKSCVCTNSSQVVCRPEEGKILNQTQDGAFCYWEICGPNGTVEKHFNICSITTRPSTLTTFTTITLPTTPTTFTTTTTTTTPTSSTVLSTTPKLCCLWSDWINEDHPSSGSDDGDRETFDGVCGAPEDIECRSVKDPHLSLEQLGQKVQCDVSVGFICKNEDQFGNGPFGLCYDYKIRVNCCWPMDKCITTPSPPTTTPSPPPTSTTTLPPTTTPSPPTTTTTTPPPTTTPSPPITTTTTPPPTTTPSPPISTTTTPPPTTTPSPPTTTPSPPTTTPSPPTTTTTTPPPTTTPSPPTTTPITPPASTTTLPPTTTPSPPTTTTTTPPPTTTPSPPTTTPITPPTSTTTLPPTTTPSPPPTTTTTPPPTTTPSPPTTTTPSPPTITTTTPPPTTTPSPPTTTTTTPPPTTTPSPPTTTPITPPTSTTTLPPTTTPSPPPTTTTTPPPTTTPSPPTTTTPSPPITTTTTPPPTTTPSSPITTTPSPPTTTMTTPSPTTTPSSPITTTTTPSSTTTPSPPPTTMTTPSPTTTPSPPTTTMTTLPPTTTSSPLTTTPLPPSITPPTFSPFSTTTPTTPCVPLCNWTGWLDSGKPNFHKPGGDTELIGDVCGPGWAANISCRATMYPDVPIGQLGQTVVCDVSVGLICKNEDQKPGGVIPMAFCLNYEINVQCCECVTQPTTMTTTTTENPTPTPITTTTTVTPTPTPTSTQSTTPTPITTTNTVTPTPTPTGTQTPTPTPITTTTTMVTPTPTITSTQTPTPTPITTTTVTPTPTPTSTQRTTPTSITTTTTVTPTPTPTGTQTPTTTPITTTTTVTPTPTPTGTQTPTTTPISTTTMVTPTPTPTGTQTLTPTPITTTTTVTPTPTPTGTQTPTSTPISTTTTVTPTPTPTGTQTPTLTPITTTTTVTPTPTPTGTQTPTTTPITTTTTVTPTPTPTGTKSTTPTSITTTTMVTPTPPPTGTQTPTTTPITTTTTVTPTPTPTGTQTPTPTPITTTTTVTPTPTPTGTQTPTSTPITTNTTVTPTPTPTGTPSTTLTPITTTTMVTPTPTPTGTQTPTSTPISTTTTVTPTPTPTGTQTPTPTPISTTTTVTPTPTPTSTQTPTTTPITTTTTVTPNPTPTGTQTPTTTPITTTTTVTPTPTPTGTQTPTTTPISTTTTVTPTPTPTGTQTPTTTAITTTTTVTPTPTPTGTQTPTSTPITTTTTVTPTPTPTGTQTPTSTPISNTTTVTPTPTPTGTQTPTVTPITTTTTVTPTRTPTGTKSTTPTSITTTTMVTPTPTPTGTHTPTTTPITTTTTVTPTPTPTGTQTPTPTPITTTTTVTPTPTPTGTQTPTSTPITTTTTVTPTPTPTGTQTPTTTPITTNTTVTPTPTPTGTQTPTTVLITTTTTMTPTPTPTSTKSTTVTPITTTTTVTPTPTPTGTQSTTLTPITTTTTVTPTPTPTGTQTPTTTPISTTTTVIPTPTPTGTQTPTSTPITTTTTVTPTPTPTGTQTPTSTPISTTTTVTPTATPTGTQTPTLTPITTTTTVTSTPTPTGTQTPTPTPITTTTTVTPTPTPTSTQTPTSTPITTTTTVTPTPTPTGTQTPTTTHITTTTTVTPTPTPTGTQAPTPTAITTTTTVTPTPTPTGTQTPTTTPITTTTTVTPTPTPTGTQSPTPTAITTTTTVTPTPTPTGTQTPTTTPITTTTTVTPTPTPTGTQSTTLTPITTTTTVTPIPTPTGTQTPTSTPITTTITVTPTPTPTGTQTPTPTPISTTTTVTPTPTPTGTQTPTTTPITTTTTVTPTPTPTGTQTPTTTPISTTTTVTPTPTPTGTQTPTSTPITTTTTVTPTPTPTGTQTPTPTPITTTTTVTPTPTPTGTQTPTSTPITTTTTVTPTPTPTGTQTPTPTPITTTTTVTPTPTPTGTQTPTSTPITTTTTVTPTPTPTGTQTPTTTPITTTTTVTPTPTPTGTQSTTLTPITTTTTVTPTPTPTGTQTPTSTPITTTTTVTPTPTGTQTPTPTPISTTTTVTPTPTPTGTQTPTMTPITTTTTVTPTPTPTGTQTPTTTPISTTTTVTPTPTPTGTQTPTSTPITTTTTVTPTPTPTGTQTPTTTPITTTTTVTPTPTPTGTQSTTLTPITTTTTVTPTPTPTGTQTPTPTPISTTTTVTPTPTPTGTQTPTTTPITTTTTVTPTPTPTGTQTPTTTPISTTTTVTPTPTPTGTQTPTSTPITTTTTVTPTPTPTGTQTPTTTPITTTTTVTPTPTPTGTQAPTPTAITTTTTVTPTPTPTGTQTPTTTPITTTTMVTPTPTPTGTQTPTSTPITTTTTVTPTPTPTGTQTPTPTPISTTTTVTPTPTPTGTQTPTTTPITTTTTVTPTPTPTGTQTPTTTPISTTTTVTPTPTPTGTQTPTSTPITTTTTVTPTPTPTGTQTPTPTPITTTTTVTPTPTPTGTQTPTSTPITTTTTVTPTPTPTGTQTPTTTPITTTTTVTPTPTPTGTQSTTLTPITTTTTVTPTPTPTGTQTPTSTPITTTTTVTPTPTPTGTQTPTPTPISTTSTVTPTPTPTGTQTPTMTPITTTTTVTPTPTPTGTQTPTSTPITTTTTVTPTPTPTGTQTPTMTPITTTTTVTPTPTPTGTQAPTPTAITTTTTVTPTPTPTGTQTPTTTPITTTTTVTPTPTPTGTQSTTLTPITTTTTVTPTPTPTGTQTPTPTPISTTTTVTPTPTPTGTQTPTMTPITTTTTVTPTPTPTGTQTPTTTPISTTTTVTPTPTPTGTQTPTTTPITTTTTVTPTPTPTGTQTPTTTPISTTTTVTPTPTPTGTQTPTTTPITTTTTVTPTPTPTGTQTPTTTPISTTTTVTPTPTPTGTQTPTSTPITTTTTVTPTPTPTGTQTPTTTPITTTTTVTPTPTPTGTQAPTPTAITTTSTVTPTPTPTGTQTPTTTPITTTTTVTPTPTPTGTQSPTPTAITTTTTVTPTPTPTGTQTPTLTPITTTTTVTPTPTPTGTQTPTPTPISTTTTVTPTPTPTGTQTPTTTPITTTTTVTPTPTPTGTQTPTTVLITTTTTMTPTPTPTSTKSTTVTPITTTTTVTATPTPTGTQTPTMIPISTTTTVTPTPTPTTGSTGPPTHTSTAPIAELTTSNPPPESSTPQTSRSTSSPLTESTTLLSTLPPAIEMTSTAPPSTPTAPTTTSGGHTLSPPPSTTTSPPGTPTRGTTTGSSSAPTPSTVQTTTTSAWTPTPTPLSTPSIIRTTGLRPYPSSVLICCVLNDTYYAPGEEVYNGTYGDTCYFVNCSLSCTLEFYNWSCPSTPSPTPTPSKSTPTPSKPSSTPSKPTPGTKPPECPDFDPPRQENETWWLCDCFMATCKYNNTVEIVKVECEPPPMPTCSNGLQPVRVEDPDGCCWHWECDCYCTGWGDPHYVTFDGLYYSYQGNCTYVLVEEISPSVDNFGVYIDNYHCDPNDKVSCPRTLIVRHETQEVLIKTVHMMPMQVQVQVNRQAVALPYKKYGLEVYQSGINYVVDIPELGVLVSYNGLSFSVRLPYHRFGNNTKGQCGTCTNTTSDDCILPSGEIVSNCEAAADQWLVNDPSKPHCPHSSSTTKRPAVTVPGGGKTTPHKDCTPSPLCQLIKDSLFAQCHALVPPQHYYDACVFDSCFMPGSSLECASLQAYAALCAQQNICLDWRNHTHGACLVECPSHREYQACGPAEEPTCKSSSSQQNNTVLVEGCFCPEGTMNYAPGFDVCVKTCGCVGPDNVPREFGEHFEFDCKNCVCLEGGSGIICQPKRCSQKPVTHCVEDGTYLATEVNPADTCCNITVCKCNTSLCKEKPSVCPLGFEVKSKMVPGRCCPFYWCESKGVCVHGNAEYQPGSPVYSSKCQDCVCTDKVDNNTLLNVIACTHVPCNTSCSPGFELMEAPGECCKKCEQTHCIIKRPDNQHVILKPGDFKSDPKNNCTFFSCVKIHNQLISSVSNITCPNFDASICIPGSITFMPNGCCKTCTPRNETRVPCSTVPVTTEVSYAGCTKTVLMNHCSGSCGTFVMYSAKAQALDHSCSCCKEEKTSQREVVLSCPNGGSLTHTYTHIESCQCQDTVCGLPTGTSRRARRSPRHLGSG

IgGFc-binding protein (FCGBP) (from UniProt Q9Y6R7 24-5405)
binding [1]: binds

B1: calcium-activated chloride channel regulator 1 (CLCA1) (protein, UniProt A8K7I4 22-914)
chain: NSLIQLNNNGYEGIVVAIDPNVPEDETLIQQIKDMVTQASLYLLEATGKRFYFKNVAILIPETWKTKADYVRPKLETYKNADVLVAESTPPGNDEPYTEQMGNCGEKGERIHLTPDFIAGKKLAEYGPQGRAFVHEWAHLRWGVFDEYNNDEKFYLSNGRIQAVRCSAGITGTNVVKKCQGGSCYTKRCTFNKVTGLYEKGCEFVLQSRQTEKASIMFAQHVDSIVEFCTEQNHNKEAPNKQNQKCNLRSTWEVIRDSEDFKKTTPMTTQPPNPTFSLLQIGQRIVCLVLDKSGSMATGNRLNRLNQAGQLFLLQTVELGSWVGMVTFDSAAHVQNELIQINSGSDRDTLAKRLPAAASGGTSICSGLRSAFTVIRKKYPTDGSEIVLLTDGEDNTISGCFNEVKQSGAIIHTVALGPSAAQELEELSKMTGGLQTYASDQVQNNGLIDAFGALSSGNGAVSQRSIQLESKGLTLQNSQWMNGTVIVDSTVGKDTLFLITWTMQPPQILLWDPSGQKQGGFVVDKNTKMAYLQIPGIAKVGTWKYSLQASSQTLTLTVTSRASNATLPPITVTSKTNKDTSKFPSPLVVYANIRQGASPILRASVTALIESVNGKTVTLELLDNGAGADATKDDGVYSRYFTTYDTNGRYSVKVRALGGVNAARRRVIPQQSGALYIPGWIENDEIQWNPPRPEINKDDVQHKQVCFSRTSSGGSFVASDVPNAPIPDLFPPGQITDLKAEIHGGSLINLTWTAPGDDYDHGTAHKYIIRISTSILDLRDKFNESLQVNTTALIPKEANSEEVFLFKPENITFENGTDLFIAIQAVDKVDLKSEISNIARVSLFIPPQTPPETPSPDETSAPCPNIHINSTIPGIHILKIMWKWIGELQLSIA
binding [2]: binds | binding [1]: binds
